The target in test [1] is T1, BMP9 (UniProt Q9UK05 320-429).
T1 sequence (looked up): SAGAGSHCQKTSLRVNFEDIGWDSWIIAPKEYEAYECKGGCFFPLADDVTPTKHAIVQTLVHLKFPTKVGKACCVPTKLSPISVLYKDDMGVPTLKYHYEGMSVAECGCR
Put plainly: Octet Red BLI. (In general: In BLI a coated tip is dipped into the sample, and binding shifts an interference pattern.)

Test [2] concerns the target T1, BMP9. Put plainly: automated ELISA on KinExA instrument; BMP9-coated beads; 100 pM, 1 nM and 10 nM protein; reference of the comparison.
For test [3], the target named is T1, BMP9. Put plainly: KinExA.

Results are given in words; binding and its absence hold for the method and conditions named. Some results given as binding are weak or reduced against the parent protein; the word gives no strength. For some of these results: Sequences can lack the tags named with a protein.

B1: AG-0003 hybrid ActRIIB ligand trap protein (Fc fusion, not shown: a dimerising Fc or GST)
chain: ETRECIYYNANWELERTNQSGLERCEGEQDKRLHCYASWRNSSGTIELVKKGCWLDDINCYDRTDCVEKKDSPEVYFCCCEGNFCNERFTHLPEAGGPEVTYEPPPTAPTGGGGSESKYGPPCPPCP
As to B1, the binding entry with BMP9 [1] is on record as “binds”.

B2: AG-0006 hybrid ActRIIB ligand trap protein (Fc fusion, not shown: a dimerising Fc or GST)
chain: ETRECIYYNANWELERTNQSGLERCEGEQDKRLHCYASWRNSSGTIELVKKGCWLDDFNCYDRTDCVEKKDSPEVYFCCCEGNFCNERFTHLPEAGGPEVTYEPPPTAPTGGGGSESKYGPPCPPCP
Take B2: in the test with BMP9 [1], the binding result is on record as “binds”.

B3: AG-0005 hybrid ActRIIB ligand trap protein (Fc fusion, not shown: a dimerising Fc or GST)
chain: ETRECIYYNANWELERTNQSGLERCEGEQDKRLHCYASWRNSSGTIELVKKGCWLDDFNCYDRTDCVEKKDSPQVYFCCCEGNFCNERFTHLPEAGGPEVTYEPPPTAPTGGGGSESKYGPPCPPCP
B3: in the test with BMP9 [1], the binding entry is given as “binds”.

B4: AG-0007 hybrid ActRIIB ligand trap protein (Fc fusion, not shown: a dimerising Fc or GST)
chain: ETRECIYYNANWELERTNQSGLERCEGEQDKRLHCYASWRNSSGTIELVKKGCWLDDFNCYDRQECVEKKDSPEVYFCCCEGNFCNERFTHLPEAGGPEVTYEPPPTAPTGGGGSESKYGPPCPPCP
Take B4: the binding entry in the test with BMP9 [1] is “binds”.

B5: wild-type ActRIIB-ECD-Fc fusion protein (Fc fusion, not shown: a dimerising Fc or GST)
chain: ETRECIYYNANWELERTNQSGLERCEGEQDKRLHCYASWRNSSGTIELVKKGCWLDDFNCYDRQECVATEENPQVYFCCCEGNFCNERFTHLPEAGGPEVTYEPPPTAPTGGGGSESKYGPPCPPCP
For the molecule B5, the binding entry with BMP9 [2] and with BMP9 [3] was “binds” throughout.

B6: AG-0008 hybrid ActRIIB ligand trap protein (Fc fusion, not shown: a dimerising Fc or GST)
chain: ETRECIYYNANWELERTNQSGLERCEGEQDKRLHCYASWRNSSGTIELVKKGCWLDDFNCYDRQECVEKKDSPQVYFCCCEGNFCNERFTHLPEAGGPEVTYEPPPTAPTGGGGSESKYGPPCPPCP
Take B6: the binding entry with BMP9 [1] was “binds”.

For the origin of these results see patent US20260209306A1 (ALIVEGEN, published 2026).
